39 targets from the supplement of paper PMC12067093, “Discovery and optimisation of a covalent ligand for TRIM25 and its application to targeted protein ubiquitination” (Chemical Science, 2025) can be followed below.

The chains behind the UniProt entries cited, without tags or fusion partners. Where a name states a change or a piece, a line headed by the entry shows the natural chain unless it says otherwise.
UniProt Q9ULU4: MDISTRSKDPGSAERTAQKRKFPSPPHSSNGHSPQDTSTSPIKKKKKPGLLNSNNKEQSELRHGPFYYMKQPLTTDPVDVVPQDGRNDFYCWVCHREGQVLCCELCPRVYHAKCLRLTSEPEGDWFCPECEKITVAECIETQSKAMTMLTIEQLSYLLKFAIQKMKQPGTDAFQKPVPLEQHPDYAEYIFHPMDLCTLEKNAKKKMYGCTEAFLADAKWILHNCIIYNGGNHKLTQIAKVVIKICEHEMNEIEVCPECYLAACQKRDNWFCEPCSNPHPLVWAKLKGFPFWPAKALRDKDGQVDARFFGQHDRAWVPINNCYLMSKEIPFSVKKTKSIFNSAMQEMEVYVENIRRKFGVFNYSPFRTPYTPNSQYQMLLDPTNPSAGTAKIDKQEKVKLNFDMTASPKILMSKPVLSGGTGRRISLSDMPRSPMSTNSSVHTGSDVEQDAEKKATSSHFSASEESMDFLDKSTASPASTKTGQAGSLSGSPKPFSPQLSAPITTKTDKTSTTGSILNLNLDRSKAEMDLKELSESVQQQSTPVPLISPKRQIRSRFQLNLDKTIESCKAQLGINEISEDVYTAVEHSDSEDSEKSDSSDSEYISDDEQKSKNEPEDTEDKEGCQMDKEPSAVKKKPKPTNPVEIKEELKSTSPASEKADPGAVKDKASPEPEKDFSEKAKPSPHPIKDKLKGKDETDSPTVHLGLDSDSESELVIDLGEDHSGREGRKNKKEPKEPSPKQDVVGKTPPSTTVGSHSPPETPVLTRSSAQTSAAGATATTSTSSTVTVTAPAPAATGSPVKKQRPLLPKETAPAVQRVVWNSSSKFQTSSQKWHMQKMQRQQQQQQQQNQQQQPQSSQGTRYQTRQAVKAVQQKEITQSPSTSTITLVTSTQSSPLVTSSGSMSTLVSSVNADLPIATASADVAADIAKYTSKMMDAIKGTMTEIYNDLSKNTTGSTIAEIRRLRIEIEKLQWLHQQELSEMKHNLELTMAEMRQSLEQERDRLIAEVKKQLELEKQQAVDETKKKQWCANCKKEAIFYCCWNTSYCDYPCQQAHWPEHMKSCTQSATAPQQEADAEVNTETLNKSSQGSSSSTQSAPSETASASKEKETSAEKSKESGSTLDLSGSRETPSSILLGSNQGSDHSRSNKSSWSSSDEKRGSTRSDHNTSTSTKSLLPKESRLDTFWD
UniProt Q9Y3S2: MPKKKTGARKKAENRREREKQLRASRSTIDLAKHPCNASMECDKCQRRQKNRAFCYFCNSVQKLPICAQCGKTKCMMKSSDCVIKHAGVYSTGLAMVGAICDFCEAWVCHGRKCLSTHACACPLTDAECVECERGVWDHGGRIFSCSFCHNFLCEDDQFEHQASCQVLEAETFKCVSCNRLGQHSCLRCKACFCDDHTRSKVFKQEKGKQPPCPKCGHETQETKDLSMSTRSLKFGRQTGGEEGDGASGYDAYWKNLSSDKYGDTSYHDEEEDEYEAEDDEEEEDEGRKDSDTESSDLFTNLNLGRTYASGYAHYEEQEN
UniProt Q92610: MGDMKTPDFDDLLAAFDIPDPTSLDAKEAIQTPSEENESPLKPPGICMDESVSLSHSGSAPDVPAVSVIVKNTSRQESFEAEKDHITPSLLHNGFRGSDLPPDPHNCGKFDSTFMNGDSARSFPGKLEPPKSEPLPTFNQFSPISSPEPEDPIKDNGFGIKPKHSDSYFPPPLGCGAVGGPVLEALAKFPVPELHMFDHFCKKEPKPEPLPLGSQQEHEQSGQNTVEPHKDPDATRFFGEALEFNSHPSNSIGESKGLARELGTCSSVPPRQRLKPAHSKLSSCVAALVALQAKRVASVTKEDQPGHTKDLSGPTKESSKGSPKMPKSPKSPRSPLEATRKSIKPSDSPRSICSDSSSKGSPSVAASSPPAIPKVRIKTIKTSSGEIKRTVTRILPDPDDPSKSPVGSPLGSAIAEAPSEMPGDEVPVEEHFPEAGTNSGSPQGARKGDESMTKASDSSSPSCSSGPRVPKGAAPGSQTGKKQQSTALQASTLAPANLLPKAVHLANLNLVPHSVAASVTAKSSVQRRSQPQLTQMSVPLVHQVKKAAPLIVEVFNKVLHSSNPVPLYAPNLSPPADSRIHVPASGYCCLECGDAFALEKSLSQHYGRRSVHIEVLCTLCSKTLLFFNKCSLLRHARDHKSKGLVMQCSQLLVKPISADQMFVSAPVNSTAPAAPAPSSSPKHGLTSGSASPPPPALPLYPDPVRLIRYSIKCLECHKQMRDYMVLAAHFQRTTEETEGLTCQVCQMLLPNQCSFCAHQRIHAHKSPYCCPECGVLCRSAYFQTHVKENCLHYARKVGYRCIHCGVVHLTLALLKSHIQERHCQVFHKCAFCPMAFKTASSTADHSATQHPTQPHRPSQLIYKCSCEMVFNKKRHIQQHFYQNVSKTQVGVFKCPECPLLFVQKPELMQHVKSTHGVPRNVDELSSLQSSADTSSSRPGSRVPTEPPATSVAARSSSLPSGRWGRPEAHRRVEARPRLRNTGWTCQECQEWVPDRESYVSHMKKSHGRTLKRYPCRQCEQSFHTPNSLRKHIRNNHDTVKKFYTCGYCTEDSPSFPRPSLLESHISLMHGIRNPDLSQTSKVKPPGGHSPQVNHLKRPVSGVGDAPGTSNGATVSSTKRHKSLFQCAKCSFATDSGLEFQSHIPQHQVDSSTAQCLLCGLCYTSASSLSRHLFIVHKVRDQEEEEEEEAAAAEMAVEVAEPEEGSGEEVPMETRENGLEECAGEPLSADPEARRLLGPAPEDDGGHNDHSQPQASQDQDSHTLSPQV
UniProt Q9UBW7: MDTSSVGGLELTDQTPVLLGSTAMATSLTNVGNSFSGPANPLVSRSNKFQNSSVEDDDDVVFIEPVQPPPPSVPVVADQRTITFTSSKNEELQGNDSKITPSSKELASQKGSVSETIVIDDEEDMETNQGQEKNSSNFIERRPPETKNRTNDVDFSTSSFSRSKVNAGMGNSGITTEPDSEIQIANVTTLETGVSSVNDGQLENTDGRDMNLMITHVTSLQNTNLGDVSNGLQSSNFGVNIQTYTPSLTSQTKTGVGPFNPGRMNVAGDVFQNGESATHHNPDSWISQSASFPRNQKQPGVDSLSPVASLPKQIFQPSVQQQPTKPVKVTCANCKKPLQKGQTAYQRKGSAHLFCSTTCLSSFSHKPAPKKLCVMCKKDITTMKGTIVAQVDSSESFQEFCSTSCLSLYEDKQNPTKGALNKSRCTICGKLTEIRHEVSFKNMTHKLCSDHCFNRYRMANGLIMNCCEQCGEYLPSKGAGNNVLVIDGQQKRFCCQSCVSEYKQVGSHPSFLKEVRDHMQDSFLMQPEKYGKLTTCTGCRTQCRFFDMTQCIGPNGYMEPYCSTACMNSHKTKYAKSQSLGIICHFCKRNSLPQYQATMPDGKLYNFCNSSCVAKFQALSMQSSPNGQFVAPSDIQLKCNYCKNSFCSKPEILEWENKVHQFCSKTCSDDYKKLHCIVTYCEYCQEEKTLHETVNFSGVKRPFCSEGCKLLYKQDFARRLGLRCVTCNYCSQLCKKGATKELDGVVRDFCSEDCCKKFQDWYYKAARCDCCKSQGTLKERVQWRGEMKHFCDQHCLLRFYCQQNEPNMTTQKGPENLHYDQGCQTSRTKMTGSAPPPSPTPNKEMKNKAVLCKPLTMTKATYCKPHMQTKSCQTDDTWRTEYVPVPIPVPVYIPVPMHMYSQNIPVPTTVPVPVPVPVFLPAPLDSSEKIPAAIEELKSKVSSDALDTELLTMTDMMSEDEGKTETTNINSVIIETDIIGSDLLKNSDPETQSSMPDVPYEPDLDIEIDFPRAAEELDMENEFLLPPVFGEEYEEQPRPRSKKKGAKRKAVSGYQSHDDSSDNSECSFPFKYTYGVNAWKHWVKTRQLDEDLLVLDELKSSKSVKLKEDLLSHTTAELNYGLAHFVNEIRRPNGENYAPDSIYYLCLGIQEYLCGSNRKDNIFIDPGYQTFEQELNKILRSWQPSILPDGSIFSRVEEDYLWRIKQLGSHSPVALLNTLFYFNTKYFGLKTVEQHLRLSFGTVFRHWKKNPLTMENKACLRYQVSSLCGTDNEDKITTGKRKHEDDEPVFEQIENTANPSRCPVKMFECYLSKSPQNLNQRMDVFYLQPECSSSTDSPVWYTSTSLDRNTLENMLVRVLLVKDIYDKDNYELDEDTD
UniProt Q14966: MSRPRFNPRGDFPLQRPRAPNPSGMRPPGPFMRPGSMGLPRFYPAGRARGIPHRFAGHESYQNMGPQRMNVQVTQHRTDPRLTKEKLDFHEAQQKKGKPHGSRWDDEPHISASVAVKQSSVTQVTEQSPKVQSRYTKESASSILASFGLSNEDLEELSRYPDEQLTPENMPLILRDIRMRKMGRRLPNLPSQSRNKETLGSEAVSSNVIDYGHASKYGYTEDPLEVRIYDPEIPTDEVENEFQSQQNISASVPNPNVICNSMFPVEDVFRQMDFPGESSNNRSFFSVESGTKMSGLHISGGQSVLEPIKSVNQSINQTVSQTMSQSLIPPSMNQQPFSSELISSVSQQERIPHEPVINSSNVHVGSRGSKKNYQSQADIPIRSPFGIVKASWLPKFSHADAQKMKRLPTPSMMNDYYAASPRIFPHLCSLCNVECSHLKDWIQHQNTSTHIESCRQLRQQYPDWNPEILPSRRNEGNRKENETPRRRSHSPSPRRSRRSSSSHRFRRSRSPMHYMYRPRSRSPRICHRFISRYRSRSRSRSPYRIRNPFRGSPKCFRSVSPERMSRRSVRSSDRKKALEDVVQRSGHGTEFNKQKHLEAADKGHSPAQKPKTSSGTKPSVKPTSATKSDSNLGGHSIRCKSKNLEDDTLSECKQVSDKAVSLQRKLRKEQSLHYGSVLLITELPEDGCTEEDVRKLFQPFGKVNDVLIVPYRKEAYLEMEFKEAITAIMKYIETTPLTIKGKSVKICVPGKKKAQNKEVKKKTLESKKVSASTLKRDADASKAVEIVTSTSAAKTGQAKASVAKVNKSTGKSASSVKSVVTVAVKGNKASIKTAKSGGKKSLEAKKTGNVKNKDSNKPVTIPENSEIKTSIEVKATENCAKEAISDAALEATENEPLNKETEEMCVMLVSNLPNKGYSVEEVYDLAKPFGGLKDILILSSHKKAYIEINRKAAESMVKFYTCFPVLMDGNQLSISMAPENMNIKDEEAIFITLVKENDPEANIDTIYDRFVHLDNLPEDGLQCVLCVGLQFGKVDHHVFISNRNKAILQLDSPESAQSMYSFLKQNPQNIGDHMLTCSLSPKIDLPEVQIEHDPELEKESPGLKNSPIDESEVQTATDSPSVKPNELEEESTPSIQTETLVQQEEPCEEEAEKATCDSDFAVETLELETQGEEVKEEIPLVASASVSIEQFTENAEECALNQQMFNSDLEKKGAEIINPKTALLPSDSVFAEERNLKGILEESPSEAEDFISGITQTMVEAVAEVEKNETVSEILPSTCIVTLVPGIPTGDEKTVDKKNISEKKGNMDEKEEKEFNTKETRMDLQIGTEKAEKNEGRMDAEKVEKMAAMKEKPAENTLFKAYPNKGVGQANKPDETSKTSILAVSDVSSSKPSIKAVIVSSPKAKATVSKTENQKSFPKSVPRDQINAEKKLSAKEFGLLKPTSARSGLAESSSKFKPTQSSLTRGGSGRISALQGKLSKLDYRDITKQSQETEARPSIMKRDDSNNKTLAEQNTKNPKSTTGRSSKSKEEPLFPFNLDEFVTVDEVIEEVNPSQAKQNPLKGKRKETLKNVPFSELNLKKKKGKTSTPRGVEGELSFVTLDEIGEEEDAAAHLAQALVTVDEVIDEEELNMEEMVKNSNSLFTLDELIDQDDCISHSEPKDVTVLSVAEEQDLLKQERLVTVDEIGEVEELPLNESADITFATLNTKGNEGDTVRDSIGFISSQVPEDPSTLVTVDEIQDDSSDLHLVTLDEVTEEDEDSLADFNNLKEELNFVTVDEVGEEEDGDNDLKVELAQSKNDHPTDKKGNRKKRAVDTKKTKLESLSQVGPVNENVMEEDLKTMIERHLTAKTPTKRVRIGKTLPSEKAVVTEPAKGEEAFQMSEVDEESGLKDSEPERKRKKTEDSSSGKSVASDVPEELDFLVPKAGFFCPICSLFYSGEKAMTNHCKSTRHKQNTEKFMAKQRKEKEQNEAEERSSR
UniProt P17028: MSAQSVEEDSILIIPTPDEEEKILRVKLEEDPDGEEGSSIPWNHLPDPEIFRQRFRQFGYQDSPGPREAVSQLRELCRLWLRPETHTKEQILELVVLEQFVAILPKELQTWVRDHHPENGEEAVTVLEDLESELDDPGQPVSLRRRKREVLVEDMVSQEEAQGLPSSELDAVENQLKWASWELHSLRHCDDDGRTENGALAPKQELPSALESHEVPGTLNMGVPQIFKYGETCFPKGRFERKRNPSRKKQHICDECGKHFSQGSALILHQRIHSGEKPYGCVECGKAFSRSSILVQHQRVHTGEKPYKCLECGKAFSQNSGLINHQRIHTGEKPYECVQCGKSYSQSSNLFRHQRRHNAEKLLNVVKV

Compound in the assay: CC1Cc2ccccc2N1C(=O)C1CCCN(C1)C(=O)CCl (mixture of isomers) [TRIM25 ligand 11 (diastereomer mixture)]
The experiment in a line: probe-labelled cysteine peptide fold change vs DMSO (competition) (log2 fold change); higher = less target engagement (more negative = stronger competition). The settings on record: THP-1, incubation time: 4 h.

The list shows a part of the results.
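Also: competitive chemoproteomic profiling in live THP-1 cells with an iodoacetamide desthiobiotin (IA-DTB) probe, comparing probe-labelled peptide intensities in compound-treated cells against DMSO-treated controls.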

Regarding “ZMYND8_Q9ULU4_94_NDFYCWVCHR (UniProt Q9ULU4)”, the “probe-labelled cysteine peptide fold change” value runs as follows: (10 µM) 0.0533; (50 µM) 0.134.
On to “ZNF280C_Q8ND82_690_CDFLADSSGLDR (UniProt Q8ND82)”, for which the “probe-labelled cysteine peptide fold change” value (10 µM) was 0.0226 and the “probe-labelled cysteine peptide fold change” value (50 µM) was -0.0202.
In the case of “ZNF330_Q9Y3S2_109_HAGVYSTGLAMVGAICDFCEAWVCHGR (UniProt Q9Y3S2)”, the “probe-labelled cysteine peptide fold change” value was 0.327 (10 µM) and -0.0537 (50 µM).
On to “ZMYM4_Q5VZL5_1368_IEEEHLWECK (UniProt Q5VZL5)”, for which the “probe-labelled cysteine peptide fold change” value is, setting by setting: (10 µM) 0.202; (50 µM) 0.0976.
In the case of “ZFR_Q96KR1_974_RVFECISSGIILK (UniProt Q96KR1)”, the “probe-labelled cysteine peptide fold change” value reads like this: (10 µM) -0.34; (50 µM) 0.174.
On to “ZNF428_Q96B54_114_LCCPATAPQEAPAPEGR (UniProt Q96B54)”, for which the “probe-labelled cysteine peptide fold change” value reads like this: (10 µM) -0.082; (50 µM) -0.17.
In the case of “ZNF691_Q5VV52_232_THLEPAPYICCECGK (UniProt Q5VV52)”, the “probe-labelled cysteine peptide fold change” value is -0.283 (10 µM) and -0.457 (50 µM).
In the same order, the values of “ZFYVE1_Q9HBF4_71_LKPGHVPYCDLCK (UniProt Q9HBF4)” are -0.0815 and 0.168.
On to “ZNF609_O15014_178_SEGVGTCSEK (UniProt O15014)”, for which the “probe-labelled cysteine peptide fold change” value reads like this: (10 µM) -0.0654; (50 µM) -0.0851.
In the same order, the values of “ZMYM3_Q14202_633+636_GVVSQCEHCR (UniProt Q14202)” are 0.0611 and 0.191.
As to “ZMIZ2_Q8NF64_564_LLPAEHCITK (UniProt Q8NF64)”, the “probe-labelled cysteine peptide fold change” value (10 µM) was -0.0364 and the “probe-labelled cysteine peptide fold change” value (50 µM) is -0.0924.
For “ZNF189_O75820_610_TQETHECDACGEAFNCR (UniProt O75820)”, the “probe-labelled cysteine peptide fold change” value by setting is: (10 µM) 0.0654; (50 µM) -0.152.
In the same order, the values of “ZNF318_Q5VUA4_1071_DCNTICGTMFDFFTHMHNK (UniProt Q5VUA4)” are -0.124 and 0.0115.
With “ZNF408_Q9H9D4_685_CFVVPEEPDAAPSLVLIHK (UniProt Q9H9D4)”, the “probe-labelled cysteine peptide fold change” value runs as follows: (10 µM) 0.161; (50 µM) -0.309.
For “ZNF592_Q92610_592_IHVPASGYCCLECGDAFALEK (UniProt Q92610)”, the “probe-labelled cysteine peptide fold change” value reads like this: (10 µM) -0.227; (50 µM) 0.078.
In the case of “ZMYM2_Q9UBW7_872_SCQTDDTWR (UniProt Q9UBW7)”, the “probe-labelled cysteine peptide fold change” value reads like this: (10 µM) 0.135; (50 µM) -0.0499.
With “ZNF638_Q14966_1933_AGFFCPICSLFYSGEK (UniProt Q14966)”, the “probe-labelled cysteine peptide fold change” value (10 µM) is -0.109 and the “probe-labelled cysteine peptide fold change” value (50 µM) was found to be 0.178.
“ZNF217_O75362_286_CIPQLDPFTTFQAWQLATK (UniProt O75362)”: the “probe-labelled cysteine peptide fold change” value is -0.073 (10 µM) and -0.231 (50 µM).
“ZNF579_Q8NAF0_250_AHPCLRPEGEQEGEGGPPPRPK (UniProt Q8NAF0)”: the “probe-labelled cysteine peptide fold change” value runs as follows: (10 µM) 0.0265; (50 µM) 0.00891.
Regarding “ZNF451_Q9Y4E5_940_IGCFFLHPR (UniProt Q9Y4E5)”, the “probe-labelled cysteine peptide fold change” value was -0.144 (10 µM) and -0.0177 (50 µM).
For “ZNF592_Q92610_648_GLVMQCSQLLVK (UniProt Q92610)”, in that order: 0.0751 and 0.172.
With “ZNF14_P17017_42_NLVCLGK (UniProt P17017)”, the “probe-labelled cysteine peptide fold change” value (10 µM) is -0.0998 and the “probe-labelled cysteine peptide fold change” value (50 µM) stood at 0.0189.
Turning to ZFX_P17010_664_CDMCDK (UniProt P17010), the “probe-labelled cysteine peptide fold change” value is, setting by setting: (10 µM) 0.0057; (50 µM) -0.0177.
“ZMYND8_Q9ULU4_130_LTSEPEGDWFCPECEK (UniProt Q9ULU4)”: the “probe-labelled cysteine peptide fold change” value was -0.0508 (10 µM) and -0.0488 (50 µM).
On to “ZNF512_Q96ME7_540_NNEELVVSASCK (UniProt Q96ME7)”, for which the “probe-labelled cysteine peptide fold change” value was 0.0591 (10 µM) and -0.146 (50 µM).
Consider “ZNF622_Q969S3_69_GSATYCTVCSK (UniProt Q969S3)”, for which the “probe-labelled cysteine peptide fold change” value reads like this: (10 µM) -0.0414; (50 µM) 0.123.
“ZMYM2_Q9UBW7_331_VTCANCK (UniProt Q9UBW7)”: the “probe-labelled cysteine peptide fold change” value (10 µM) was -0.0194 and the “probe-labelled cysteine peptide fold change” value (50 µM) came out at 0.0901.
Turning to “ZFYVE19_Q96K21_104_AFCSGCLSFSAAVPR (UniProt Q96K21)”, the “probe-labelled cysteine peptide fold change” value (10 µM) was -0.0818 and the “probe-labelled cysteine peptide fold change” value (50 µM) worked out at 0.13.
With “ZFAND3_Q9H8U3_181_CGYVFCMLHR (UniProt Q9H8U3)”, the “probe-labelled cysteine peptide fold change” value is -0.0979 (10 µM) and -0.159 (50 µM).
Take “ZNF521_Q96K83_537_QVHCDLSGSR (UniProt Q96K83)”: the “probe-labelled cysteine peptide fold change” value is 0.031 (10 µM) and -0.0659 (50 µM).
In the same order, the values of “ZFYVE21_Q9BQ24_138_VLLSGATFLVTFGNSEKPETMTCR (UniProt Q9BQ24)” are -0.179 and -0.169.
Turning to “ZNF644_Q9H582_1233_MDLTMHSALDCK (UniProt Q9H582)”, the “probe-labelled cysteine peptide fold change” value is -0.102 (10 µM) and -0.274 (50 µM).
In the same order, the values of “ZNF638_Q14966_1077_QNPQNIGDHMLTCSLSPK (UniProt Q14966)” are -0.104 and -0.439.
With “ZMYM3_Q14202_1073_CWVQSK (UniProt Q14202)”, the “probe-labelled cysteine peptide fold change” value runs as follows: (10 µM) -0.101; (50 µM) -0.0709.
For “ZNF24_P17028_233_YGETCFPK (UniProt P17028)”, in that order: -0.0914 and -0.0598.
In the case of “ZNF618_Q5T7W0_635+638_CSACALNSVVQSVLSK (UniProt Q5T7W0)”, the “probe-labelled cysteine peptide fold change” value runs as follows: (10 µM) -0.0375; (50 µM) -0.117.
For “ZNF106_Q9H2Y7_457_SPLLPCPATK (UniProt Q9H2Y7)”, in that order: 0.0293 and -0.241.
Regarding “ZNF316_A6NFI3_920_THTGERPYACANCGR (UniProt A6NFI3)”, the “probe-labelled cysteine peptide fold change” value came out at 0.182 (10 µM) and 0.161 (50 µM).
With “ZNF551_Q7Z340_340_HECGECR (UniProt Q7Z340)”, the “probe-labelled cysteine peptide fold change” value was 0.121 (10 µM) and 0.42 (50 µM).
